Experimental data: PubChem BioAssay AID1259308 (NCATS, 2017)
Shown is one part, drawn at random, of about 59,000 deposited reagents. About 1,510 of them (2.6%) count as active. 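Calls use total luciferase alone and ignore viability, so some active siRNAs may act by altering cell number.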 The numbers tell different reagents against one gene apart. Not all columns of the deposit are shown.

- Aim: 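Candidate targets for better recombinant protein yield in mammalian cells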 (primary screen)
- Cells: human HEK293 embryonic kidney cells stably expressing firefly luciferase (HEK-CMV-Luc2-Hygro)
- Knock-down reagent: single siRNA against human genes, 0.8 pmol siRNA per well
- Duration: 72 h
- Measured: 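Reporter luminescence and viable-cell signal on separate replicate plates, given as percent of non-targeting control and median/MAD z-scores, plus per-cell luciferase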
- Direction: total luciferase, z-score: higher = more reporter protein produced
- Call rule: 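An siRNA counts as active if its total luciferase robust z-score exceeds 3; genes with two or more such siRNAs out of three were retested with fresh siRNAs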
- Calls: active = raised luciferase; inactive = no rise

no.	Target gene	reagent	total luciferase, z-score	activity call
1	ADAM15 (ADAM metallopeptidase domain 15)	1	-0.589	inactive
2	ADAM15 (ADAM metallopeptidase domain 15)	2	-1.3	inactive
3	ADAM15 (ADAM metallopeptidase domain 15)	3	-2.1	inactive
4	CSRNP3 (cysteine and serine rich nuclear protein 3)	1	-1.23	inactive
5	CSRNP3 (cysteine and serine rich nuclear protein 3)	2	0.298	inactive
6	CSRNP3 (cysteine and serine rich nuclear protein 3)	3	0.486	inactive
7	PCDHB2 (protocadherin beta 2)	1	-0.395	inactive
8	PCDHB2 (protocadherin beta 2)	2	-0.871	inactive
9	PCDHB2 (protocadherin beta 2)	3	-1.19	inactive
10	RALY (RALY heterogeneous nuclear ribonucleoprotein)	1	2.57	inactive
11	RALY (RALY heterogeneous nuclear ribonucleoprotein)	2	-0.678	inactive
12	RALY (RALY heterogeneous nuclear ribonucleoprotein)	3	0.159	inactive
13	GALNT15 (polypeptide N-acetylgalactosaminyltransferase 15)	1	-0.408	inactive
14	GALNT15 (polypeptide N-acetylgalactosaminyltransferase 15)	2	3.67	active
15	GALNT15 (polypeptide N-acetylgalactosaminyltransferase 15)	3	0.364	inactive
16	KRTAP5-6 (keratin associated protein 5-6)	1	-1.04	inactive
17	KRTAP5-6 (keratin associated protein 5-6)	2	-2.39	inactive
18	KRTAP5-6 (keratin associated protein 5-6)	3	-0.0392	inactive
19	PRC1 (protein regulator of cytokinesis 1)	1	1.83	inactive
20	PRC1 (protein regulator of cytokinesis 1)	2	-1.95	inactive
21	PRC1 (protein regulator of cytokinesis 1)	3	-0.401	inactive
22	TUBG2 (tubulin gamma 2)	1	-1.21	inactive
23	TUBG2 (tubulin gamma 2)	2	-0.217	inactive
24	TUBG2 (tubulin gamma 2)	3	0.397	inactive

Copied from the list:
Value of ADAM15 (ADAM metallopeptidase domain 15) #3 under “total luciferase, z-score”: -2.1
CSRNP3 (cysteine and serine rich nuclear protein 3) #3, total luciferase, z-score = 0.486
Entry of GALNT15 (polypeptide N-acetylgalactosaminyltransferase 15) #2 in “activity call”: active

The list goes on.
no.	Target gene	reagent	total luciferase, z-score	activity call
25	DSG2 (desmoglein 2)	1	0.367	inactive
26	DSG2 (desmoglein 2)	2	-0.723	inactive
27	DSG2 (desmoglein 2)	3	0.28	inactive
28	NOC3L (NOC3 like DNA replication regulator)	1	-0.205	inactive
29	NOC3L (NOC3 like DNA replication regulator)	2	0.268	inactive
30	NOC3L (NOC3 like DNA replication regulator)	3	0.212	inactive
31	ADA (adenosine deaminase)	1	0.0899	inactive
32	ADA (adenosine deaminase)	2	0.237	inactive
33	ADA (adenosine deaminase)	3	1.69	inactive
34	SCN4B (sodium voltage-gated channel beta subunit 4)	1	0.79	inactive
35	SCN4B (sodium voltage-gated channel beta subunit 4)	2	0.867	inactive
36	SCN4B (sodium voltage-gated channel beta subunit 4)	3	0.18	inactive
37	SLC35F3	1	-0.578	inactive
38	SLC35F3	2	1.71	inactive
39	SLC35F3	3	0.782	inactive
40	EXOSC10 (exosome component 10)	1	0.0192	inactive
41	EXOSC10 (exosome component 10)	2	1.11	inactive
42	EXOSC10 (exosome component 10)	3	0.293	inactive
43	OR8D1 (olfactory receptor family 8 subfamily D member 1)	1	-0.092	inactive
44	OR8D1 (olfactory receptor family 8 subfamily D member 1)	2	2.83	inactive
45	OR8D1 (olfactory receptor family 8 subfamily D member 1)	3	-1.9	inactive
46	RSPO3 (R-spondin 3)	1	0.454	inactive
47	RSPO3 (R-spondin 3)	2	0.827	inactive
48	RSPO3 (R-spondin 3)	3	-1.08	inactive
49	SLC19A2	1	-1.3	inactive
50	SLC19A2	2	0.289	inactive
51	SLC19A2	3	1.25	inactive
52	NKIRAS1 (NFKB inhibitor interacting Ras like 1)	1	0.0755	inactive
53	NKIRAS1 (NFKB inhibitor interacting Ras like 1)	2	-0.346	inactive
54	NKIRAS1 (NFKB inhibitor interacting Ras like 1)	3	-0.495	inactive
55	RASA1 (RAS p21 protein activator 1)	1	0.534	inactive
56	RASA1 (RAS p21 protein activator 1)	2	-0.222	inactive
57	RASA1 (RAS p21 protein activator 1)	3	1	inactive
